From the supplement of paper PMC11006884 come the findings set out here.

Only a part is listed here, and it is no random draw.

Compound in this test: COC(=O)C#Cc1ccccc1 [methyl 3-phenylpropiolate]
Nature of the test: log2 ratio of iodoacetamide-alkyne labeling of the cysteine site, DMSO over compound (competition); higher = stronger covalent engagement of the cysteine by the compound, active = 1 or more. The conditions noted are these: 500 µM; treatment time 1 h; system: HEK293T cell lysate. The method in brief:
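Three replicates, each with duplicate channels, were prepared from HEK293T lysate (2 mg/mL) treated with vehicle or electrophile at 500 µM for 1 h at ambient temperature. Iodoacetamide alkyne was then applied for 1 h, and samples were clicked to sCIP-TMT reagents, pooled, trypsin-digested overnight at 37 °C, enriched on streptavidin, acid-eluted and analysed on Orbitrap Eclipse LC-MS/MS with FAIMS, with FragPipe quantification. The log2 competition ratio per cysteine is the mean control-channel divided by the mean compound-channel reporter intensity. Cysteines quantified in only one replicate were left out.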
As for APC C1502 (UniProt P25054), the “log2 ratio of iodoacetamide-alkyne labeling” value (“log2 ratio” below) is inactive: 0.187.
The value for TPP2 C150 (UniProt P29144) was inactive: 0.159; that for POLD1 C873 (UniProt P28340) was inactive: 0.195; that for LIG1 C508 (UniProt P18858) was inactive: 0.147.
In the case of RPL12 C141 (UniProt P30050), the “log2 ratio” value was inactive: 0.1.
Regarding RRM1 C492 (UniProt P23921), the “log2 ratio” value was inactive: 0.419.
With CHM C564 (UniProt P24386), the “log2 ratio” value was inactive: -0.208.
The value for FLNA C1165 (UniProt P21333) was inactive: 0.598; that for CALR C163 (UniProt P27797) was inactive: -0.164.
For the target SON C2070 (UniProt P18583), the “log2 ratio” value was inactive: 0.322.
Consider FLNA C2107 (UniProt P21333), for which the “log2 ratio” value was inactive: 0.12.
For DTYMK C163 (UniProt P23919) the value was inactive: 0.131; for UniProt P25398_C130, inactive: 0.337; for AHCY C195 (UniProt P23526), inactive: 0.142.
For RPL7 C186 (UniProt P18124) the value was inactive: 0.0839.
Regarding U2AF2 C429 (UniProt P26368), the “log2 ratio” value was inactive: 0.00353.
Regarding PEBP1 C133 (UniProt P30086), the “log2 ratio” value is inactive: 0.0655.
Take ANXA7 C327 (UniProt P20073): the “log2 ratio” value was inactive: 0.191.
For the target POLD1 C1061 (UniProt P28340), the “log2 ratio” value is inactive: 0.113.
For GART C237 (UniProt P22102) the value was inactive: 0.417.
For ECHS1 C62 (UniProt P30084) the value was inactive: 0.0975; for CAD C252 (UniProt P27708), inactive: 0.0601; for FLNA C2479 (UniProt P21333), inactive: 0.205.
With COMT C241 (UniProt P21964), the “log2 ratio” value was inactive: 0.194.
The value for PSMA4 C163 (UniProt P25789) was inactive: 0.263.
The value for CSRP1 C58 (UniProt P21291) was inactive: 0.21.
On to FLNA C2293 (UniProt P21333), for which the “log2 ratio” value is inactive: 0.32.
Turning to PGAM1 C153 (UniProt P18669), the “log2 ratio” value was inactive: 0.299.
In the case of PTBP1 C250 (UniProt P26599), the “log2 ratio” value is inactive: 0.165.
UniProt P26367_C94: the “log2 ratio” value was inactive: 0.097.
For the target ATP6V1B2 C112 (UniProt P21281), the “log2 ratio” value is inactive: 0.262.
For the target PAICS C81 (UniProt P22234), the “log2 ratio” value is inactive: 0.248.
Turning to GTF2E2 C208 (UniProt P29084), the “log2 ratio” value is inactive: -0.00699.
The value for NF1 C383 (UniProt P21359) was inactive: 0.376.
The value for ECHS1 C213 (UniProt P30084) was inactive: -0.205.
The value for UniProt P26639_C343 was inactive: 0.143; that for PSMC3 C240 (UniProt P17980) was inactive: 0.0788.
